Test results from paper PMC10064699.
These are yes or no findings as the source states them, for the method shown. Binding seen in cells or lysates may run through a third protein. Here binding means that the protein was enriched with, or labelled near, the bait; the list need not be complete.

Chains of the proteins cited; added tags and fusions are not shown. Lines headed by an entry give the natural chain unless they say otherwise; changes in a name come on top.
UniProt Q386W1: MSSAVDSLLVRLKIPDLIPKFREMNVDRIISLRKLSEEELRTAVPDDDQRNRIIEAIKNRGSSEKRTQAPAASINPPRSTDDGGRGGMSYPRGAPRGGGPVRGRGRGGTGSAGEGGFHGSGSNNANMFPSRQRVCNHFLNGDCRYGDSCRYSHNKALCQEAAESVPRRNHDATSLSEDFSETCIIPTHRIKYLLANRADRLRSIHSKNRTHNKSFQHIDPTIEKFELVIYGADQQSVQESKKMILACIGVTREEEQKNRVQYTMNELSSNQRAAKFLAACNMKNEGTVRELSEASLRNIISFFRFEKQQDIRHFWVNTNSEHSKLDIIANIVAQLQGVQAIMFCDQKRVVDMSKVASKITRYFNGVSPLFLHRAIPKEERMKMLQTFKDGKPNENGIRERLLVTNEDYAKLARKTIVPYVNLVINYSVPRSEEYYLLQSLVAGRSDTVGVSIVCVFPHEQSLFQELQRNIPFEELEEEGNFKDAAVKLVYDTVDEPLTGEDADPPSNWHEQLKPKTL
UniProt Q57TY3: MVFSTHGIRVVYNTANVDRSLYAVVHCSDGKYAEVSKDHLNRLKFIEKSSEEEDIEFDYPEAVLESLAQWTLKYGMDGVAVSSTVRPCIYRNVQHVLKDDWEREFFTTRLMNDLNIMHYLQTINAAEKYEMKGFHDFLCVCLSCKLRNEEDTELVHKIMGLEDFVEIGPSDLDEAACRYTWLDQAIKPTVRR

Key:
[1] = biological target: TAP-ZC3H41 (Trypanosoma brucei) (UniProt Q386W1); assay: affinity purification with mass spectrometry; tandem affinity purification as above, cell lysate treated with a mixture of RNases A and T1
[2] = biological target: TAP-ZC3H41 (Trypanosoma brucei) (UniProt Q386W1); assay: affinity purification with mass spectrometry; tandem affinity purification (TAP) from 1-2 x 10^10 procyclic T. brucei cells expressing the TAP-tagged bait; SDS-PAGE, SYPRO staining, bands identified by MALDI-TOF/TOF

ZC3H41-associated protein (Z41AP), endogenous (from UniProt Q57TY3)
binding [1]: binds | binding [2]: binds
